Where two headings read alike, the source gives them in different places. Results are given in words; binding and its absence hold for the method and conditions named. In cells and extracts the contact can be indirect. Some results given as binding are weak or reduced against the parent protein; the word gives no strength. Where a sequence is shown, tags or fusion partners need not be part of it.
T1: Cex1-HA (S. cerevisiae) (UniProt Q12453)
T1 sequence: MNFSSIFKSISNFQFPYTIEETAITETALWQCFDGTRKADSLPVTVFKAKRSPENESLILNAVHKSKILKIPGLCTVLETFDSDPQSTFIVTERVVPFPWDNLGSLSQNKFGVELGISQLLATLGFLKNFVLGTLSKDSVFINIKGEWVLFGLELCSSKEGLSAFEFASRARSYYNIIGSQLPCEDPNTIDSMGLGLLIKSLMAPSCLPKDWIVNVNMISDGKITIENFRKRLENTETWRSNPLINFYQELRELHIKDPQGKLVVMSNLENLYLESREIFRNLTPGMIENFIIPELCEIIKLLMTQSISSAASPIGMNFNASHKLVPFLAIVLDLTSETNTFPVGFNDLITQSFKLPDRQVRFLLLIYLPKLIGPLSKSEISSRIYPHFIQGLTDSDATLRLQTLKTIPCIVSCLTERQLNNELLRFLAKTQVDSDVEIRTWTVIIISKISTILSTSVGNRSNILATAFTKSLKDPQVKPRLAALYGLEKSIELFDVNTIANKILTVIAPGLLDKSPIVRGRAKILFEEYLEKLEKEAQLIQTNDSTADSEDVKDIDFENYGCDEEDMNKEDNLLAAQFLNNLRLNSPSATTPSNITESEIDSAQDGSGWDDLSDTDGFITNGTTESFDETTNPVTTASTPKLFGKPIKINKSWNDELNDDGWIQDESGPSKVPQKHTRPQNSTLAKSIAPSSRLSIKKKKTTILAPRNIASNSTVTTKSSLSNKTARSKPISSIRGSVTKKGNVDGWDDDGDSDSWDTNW

Amino acid sequences for entries named in this document (tags omitted). Residues count along the entry.
UniProt P16474, residues 43-682: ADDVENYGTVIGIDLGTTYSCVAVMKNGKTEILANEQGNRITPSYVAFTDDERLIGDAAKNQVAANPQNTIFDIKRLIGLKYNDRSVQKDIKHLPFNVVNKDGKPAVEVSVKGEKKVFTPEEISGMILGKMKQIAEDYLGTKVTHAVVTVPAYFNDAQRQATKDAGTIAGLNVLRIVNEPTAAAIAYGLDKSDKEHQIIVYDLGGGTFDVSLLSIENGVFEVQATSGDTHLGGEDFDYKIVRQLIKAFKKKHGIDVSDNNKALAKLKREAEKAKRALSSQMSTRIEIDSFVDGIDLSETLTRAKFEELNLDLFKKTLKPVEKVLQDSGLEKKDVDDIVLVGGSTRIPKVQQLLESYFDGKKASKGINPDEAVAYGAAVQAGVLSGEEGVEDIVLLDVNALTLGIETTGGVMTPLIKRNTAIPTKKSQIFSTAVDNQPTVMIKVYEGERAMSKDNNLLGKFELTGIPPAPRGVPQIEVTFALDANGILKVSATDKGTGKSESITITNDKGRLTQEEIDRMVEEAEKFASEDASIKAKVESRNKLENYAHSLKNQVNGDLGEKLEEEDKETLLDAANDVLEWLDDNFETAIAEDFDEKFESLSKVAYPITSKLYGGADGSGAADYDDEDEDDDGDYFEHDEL
UniProt Q02630: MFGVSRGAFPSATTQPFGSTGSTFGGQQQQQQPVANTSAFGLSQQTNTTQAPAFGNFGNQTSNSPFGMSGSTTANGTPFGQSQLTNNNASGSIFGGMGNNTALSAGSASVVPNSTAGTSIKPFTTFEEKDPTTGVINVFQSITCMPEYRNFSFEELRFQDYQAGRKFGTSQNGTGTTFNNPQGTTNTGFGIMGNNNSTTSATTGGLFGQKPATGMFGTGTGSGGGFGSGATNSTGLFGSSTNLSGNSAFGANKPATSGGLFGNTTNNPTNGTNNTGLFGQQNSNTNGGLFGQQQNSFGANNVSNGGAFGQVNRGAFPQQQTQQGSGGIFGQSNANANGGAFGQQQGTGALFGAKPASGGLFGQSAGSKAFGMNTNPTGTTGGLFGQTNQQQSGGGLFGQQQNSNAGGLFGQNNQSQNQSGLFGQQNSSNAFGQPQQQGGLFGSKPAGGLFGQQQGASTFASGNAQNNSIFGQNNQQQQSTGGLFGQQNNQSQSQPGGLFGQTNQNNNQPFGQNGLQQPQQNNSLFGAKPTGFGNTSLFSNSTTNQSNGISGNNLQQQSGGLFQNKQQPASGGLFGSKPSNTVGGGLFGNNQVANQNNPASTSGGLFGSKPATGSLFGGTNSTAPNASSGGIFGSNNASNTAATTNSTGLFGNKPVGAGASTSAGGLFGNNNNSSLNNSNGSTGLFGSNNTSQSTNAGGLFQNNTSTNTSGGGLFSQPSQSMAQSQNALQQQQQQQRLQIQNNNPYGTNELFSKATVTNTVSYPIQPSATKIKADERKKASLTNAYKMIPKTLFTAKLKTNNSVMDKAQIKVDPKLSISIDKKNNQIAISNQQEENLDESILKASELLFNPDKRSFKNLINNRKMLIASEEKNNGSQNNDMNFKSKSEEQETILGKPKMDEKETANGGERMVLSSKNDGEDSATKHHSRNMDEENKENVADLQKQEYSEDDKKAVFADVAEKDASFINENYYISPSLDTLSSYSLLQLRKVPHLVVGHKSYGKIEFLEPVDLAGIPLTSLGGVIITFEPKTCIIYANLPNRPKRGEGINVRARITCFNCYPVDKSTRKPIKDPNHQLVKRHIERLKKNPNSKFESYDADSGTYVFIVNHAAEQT
UniProt P22137: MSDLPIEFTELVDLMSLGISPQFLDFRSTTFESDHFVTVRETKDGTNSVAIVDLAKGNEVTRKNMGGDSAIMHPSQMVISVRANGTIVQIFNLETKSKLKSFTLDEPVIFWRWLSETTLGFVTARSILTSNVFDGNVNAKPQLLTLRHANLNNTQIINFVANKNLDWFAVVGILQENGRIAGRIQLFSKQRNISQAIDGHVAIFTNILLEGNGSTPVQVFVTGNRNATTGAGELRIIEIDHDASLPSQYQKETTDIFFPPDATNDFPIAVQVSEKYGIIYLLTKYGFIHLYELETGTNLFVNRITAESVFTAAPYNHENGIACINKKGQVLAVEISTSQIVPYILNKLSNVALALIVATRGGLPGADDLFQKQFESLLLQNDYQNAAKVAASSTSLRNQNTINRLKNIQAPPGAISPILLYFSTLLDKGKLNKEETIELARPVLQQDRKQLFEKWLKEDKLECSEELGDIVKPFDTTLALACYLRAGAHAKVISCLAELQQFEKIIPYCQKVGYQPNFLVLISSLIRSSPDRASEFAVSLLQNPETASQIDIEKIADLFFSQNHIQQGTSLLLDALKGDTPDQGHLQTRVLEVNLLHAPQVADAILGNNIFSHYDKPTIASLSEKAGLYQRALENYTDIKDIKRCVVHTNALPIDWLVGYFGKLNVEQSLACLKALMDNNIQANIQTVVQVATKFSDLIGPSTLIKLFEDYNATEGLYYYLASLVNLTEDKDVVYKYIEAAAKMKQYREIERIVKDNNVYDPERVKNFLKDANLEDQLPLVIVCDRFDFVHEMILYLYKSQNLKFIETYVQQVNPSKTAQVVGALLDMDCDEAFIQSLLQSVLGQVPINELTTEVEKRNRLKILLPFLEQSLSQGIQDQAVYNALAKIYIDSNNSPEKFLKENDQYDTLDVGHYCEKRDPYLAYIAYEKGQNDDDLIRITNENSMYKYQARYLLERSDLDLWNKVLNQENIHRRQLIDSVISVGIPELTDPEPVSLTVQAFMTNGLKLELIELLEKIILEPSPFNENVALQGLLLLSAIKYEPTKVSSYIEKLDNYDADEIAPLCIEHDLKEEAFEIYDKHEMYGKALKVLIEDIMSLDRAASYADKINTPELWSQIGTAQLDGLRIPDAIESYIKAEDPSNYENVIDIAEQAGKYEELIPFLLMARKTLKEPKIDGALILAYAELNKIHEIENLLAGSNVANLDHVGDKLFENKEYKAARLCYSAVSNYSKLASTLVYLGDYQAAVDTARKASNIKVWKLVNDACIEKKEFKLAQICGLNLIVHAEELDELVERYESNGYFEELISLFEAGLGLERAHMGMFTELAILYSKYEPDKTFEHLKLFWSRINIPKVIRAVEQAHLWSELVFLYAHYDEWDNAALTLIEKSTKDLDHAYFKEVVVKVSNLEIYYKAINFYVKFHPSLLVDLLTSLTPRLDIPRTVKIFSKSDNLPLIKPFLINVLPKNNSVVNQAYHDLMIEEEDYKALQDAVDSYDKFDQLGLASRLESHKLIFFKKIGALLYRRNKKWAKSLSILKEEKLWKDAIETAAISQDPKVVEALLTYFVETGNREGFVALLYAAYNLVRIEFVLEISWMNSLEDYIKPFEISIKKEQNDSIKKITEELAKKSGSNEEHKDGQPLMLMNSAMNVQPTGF

T2: Sec27-Myc (S. cerevisiae) (UniProt P41811)
T2 sequence: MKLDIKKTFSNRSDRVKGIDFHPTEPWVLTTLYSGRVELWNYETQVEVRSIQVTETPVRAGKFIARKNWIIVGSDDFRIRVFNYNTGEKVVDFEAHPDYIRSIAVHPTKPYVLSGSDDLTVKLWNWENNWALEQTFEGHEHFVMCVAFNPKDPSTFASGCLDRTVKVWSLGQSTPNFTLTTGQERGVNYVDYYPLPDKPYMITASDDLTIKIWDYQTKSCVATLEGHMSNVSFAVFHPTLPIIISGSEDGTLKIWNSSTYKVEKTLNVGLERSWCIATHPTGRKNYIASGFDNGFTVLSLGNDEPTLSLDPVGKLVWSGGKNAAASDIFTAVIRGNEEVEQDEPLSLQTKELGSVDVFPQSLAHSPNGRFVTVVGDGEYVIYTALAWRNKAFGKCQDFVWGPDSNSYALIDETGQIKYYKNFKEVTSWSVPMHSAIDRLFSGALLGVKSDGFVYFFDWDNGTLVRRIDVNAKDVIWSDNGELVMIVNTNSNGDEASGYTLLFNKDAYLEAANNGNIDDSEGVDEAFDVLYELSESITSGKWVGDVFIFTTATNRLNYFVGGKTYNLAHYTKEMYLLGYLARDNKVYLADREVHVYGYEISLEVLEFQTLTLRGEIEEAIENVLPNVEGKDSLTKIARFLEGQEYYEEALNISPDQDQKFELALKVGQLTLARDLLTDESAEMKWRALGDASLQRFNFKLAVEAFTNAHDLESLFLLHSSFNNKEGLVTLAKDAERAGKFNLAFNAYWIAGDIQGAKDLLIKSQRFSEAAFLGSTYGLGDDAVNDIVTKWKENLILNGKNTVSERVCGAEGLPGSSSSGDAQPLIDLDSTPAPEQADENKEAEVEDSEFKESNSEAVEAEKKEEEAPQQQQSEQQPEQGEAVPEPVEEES


Assays:
Cex1-HA (S. cerevisiae) = target: T1, Cex1-HA (S. cerevisiae); assay: co-IP; lysates of cex1Δ+Cex1-HA precipitated with anti-HA, without antibodies as control; endogenous Kar2 and Chc1 detected with specific antibodies (Fig. S2B)
[1] = target: T2, Sec27-Myc (S. cerevisiae); assay: co-IP; lysates of cex1Δ+pHAC-CEX1+pAD6-MYC-SEC27 on Sepharose beads coated with anti-Myc, non-specific IgG as control; blots with anti-HA, anti-Nup116, anti-MYC; cells grown in fermentation conditions
[2] = target: T2, Sec27-Myc (S. cerevisiae); assay: as above; remark: listed apart in the source

binding (Cex1-HA (S. cerevisiae)) | Molecule | other results
no binding | Kar2/BiP (from UniProt P16474 43-682) | 
 | Nup116 (from UniProt Q02630 1-1113) | binding [1]: binds weakly
no binding | clathrin heavy chain Chc1 (from UniProt P22137 1-1653) | 
 | Cex1-HA (protein, UniProt Q12453 1-761) MNFSSIFKSISNFQFPYTIEETAITETALWQCFDGTRKADSLPVTVFKAKRSPENESLILNAVHKSKILKIPGLCTVLETFDSDPQSTFIVTERVVPFPWDNLGSLSQNKFGVELGISQLLATLGFLKNFVLGTLSKDSVFINIKGEWVLFGLELCSSKEGLSAFEFASRARSYYNIIGSQLPCEDPNTIDSMGLGLLIKSLMAPSCLPKDWIVNVNMISDGKITIENFRKRLENTETWRSNPLINFYQELRELHIKDPQGKLVVMSNLENLYLESREIFRNLTPGMIENFIIPELCEIIKLLMTQSISSAASPIGMNFNASHKLVPFLAIVLDLTSETNTFPVGFNDLITQSFKLPDRQVRFLLLIYLPKLIGPLSKSEISSRIYPHFIQGLTDSDATLRLQTLKTIPCIVSCLTERQLNNELLRFLAKTQVDSDVEIRTWTVIIISKISTILSTSVGNRSNILATAFTKSLKDPQVKPRLAALYGLEKSIELFDVNTIANKILTVIAPGLLDKSPIVRGRAKILFEEYLEKLEKEAQLIQTNDSTADSEDVKDIDFENYGCDEEDMNKEDNLLAAQFLNNLRLNSPSATTPSNITESEIDSAQDGSGWDDLSDTDGFITNGTTESFDETTNPVTTASTPKLFGKPIKINKSWNDELNDDGWIQDESGPSKVPQKHTRPQNSTLAKSIAPSSRLSIKKKKTTILAPRNIASNSTVTTKSSLSNKTARSKPISSIRGSVTKKGNVDGWDDDGDSDSWDTNW | binding [2]: binds

Reference: PMC8015235
